According to PMC6848426 (Rice, 2019):
No constants are given. Whether binding was seen depends on the method and setting. For part of these data: Binding seen in cells or lysates may run through a third protein. Some entries that bind do so weakly or less than the wild type. Where a sequence is shown, tags or fusion partners need not be part of it. Blank lines part the entries; values can stand above or below the binder they belong to.

Key:
[1] = biological target: T1, NYFP-OsSAPK9 (rice (Oryza sativa L.)) (UniProt Q75V57); experiment: split reporter; BiFC in Agrobacterium-infiltrated N. benthamiana leaves, NYFP and CCFP fusions, confocal microscopy 48-72 h after infiltration
T1 sequence: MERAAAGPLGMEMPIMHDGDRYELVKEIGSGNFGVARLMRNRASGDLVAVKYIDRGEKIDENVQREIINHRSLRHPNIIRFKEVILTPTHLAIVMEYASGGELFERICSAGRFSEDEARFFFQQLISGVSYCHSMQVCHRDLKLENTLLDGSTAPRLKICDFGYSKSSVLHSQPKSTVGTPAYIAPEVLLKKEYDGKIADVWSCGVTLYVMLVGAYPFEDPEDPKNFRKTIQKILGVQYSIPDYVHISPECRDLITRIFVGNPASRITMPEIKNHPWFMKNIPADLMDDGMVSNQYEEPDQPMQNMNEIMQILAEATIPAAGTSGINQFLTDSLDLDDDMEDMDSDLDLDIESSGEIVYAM

[2] = biological target: T2, GFP-OsSAPK9 (rice (Oryza sativa L.)) (UniProt Q75V57); experiment: co-IP
T2 sequence: T1 sequence

[3] = biological target: T3, BD-OsSAPK9 (rice (Oryza sativa L.)) (UniProt Q75V57); experiment: two-hybrid
T3 sequence: T1 sequence

- binding [1]: binds
B1: CCFP-OsSGT1 (protein, UniProt Q0JL44 1-367)
chain: MATAAASDLESKAKAAFVDDDFELAAELYTQAIEASPATAELYADRAQAHIKLGNYTEAVADANKAIELDPSMHKAYLRKGAACIRLEEYQTAKAALELGYSFASGDSRFTRLMKECDERIAEELSEVPVKKAEDGAAAPSVASFVEEKDDAANMDNTPPMVEVKPKYRHDFYNSATEVVLTIFAKGVPAENVVVDFGEQMLSVSIEVPGEEPYHFQPRLFSKIIPEKSRYQVLSTKVEIRLAKAEQITWTSLDYDKKPKAVPQKIIPPAESAQRPSYPSSKSKKDWDKLEAEVKKEEKEEKLEGDAALNKFFRDIYSDADEDMRRAMMKSFVESNGTVLSTNWKDVGSKKVEGSPPDGMELKKWEY

- binding [2]: binds
B2: MYC-OsSGT1 (protein, UniProt Q0JL44 1-367)
chain: B1 chain

- binding [3]: binds
B3: ΔTPR of OsSGT1 (yeast two-hybrid) (domain or fragment, UniProt Q0JL44 108-367)
chain: SRFTRLMKECDERIAEELSEVPVKKAEDGAAAPSVASFVEEKDDAANMDNTPPMVEVKPKYRHDFYNSATEVVLTIFAKGVPAENVVVDFGEQMLSVSIEVPGEEPYHFQPRLFSKIIPEKSRYQVLSTKVEIRLAKAEQITWTSLDYDKKPKAVPQKIIPPAESAQRPSYPSSKSKKDWDKLEAEVKKEEKEEKLEGDAALNKFFRDIYSDADEDMRRAMMKSFVESNGTVLSTNWKDVGSKKVEGSPPDGMELKKWEY
